Experimental data taken from patent US20140335107A1.
Residue numbers refer to the chain shown, from its start. Results are given in words; binding and its absence hold for the method and conditions named. Some entries that bind do so weakly or less than the wild type.

Sequences of proteins named here, by UniProt entry; tags and fusion partners are left off. A change or cut given only in a name is not applied to a line headed by its entry.
UniProt P40259: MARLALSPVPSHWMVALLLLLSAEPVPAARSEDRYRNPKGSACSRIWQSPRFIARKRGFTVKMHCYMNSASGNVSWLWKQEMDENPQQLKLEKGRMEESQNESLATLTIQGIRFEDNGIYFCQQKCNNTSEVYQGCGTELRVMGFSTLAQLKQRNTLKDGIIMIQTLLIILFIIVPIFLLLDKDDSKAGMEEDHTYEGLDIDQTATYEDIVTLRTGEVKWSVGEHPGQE

B1: huMA79b graft variant with HVR-L2 of SEQ ID NO: 37 (Fab, name in Kabat numbering, V domains shown)
VH: EVQLVESGGGLVQPGGSLRLSCAASGYTFSSYWIEWVRQAPGKGLEWVGEILPGGGDTNYNEIFKGRFTISADTSKNTAYLQMNSLRAEDTAVYYCTRRVPVYFDYWGQGTLVTVSS
VL: DIQMTQSPSSLSASVGDRVTITCKASQSVDYDGDSFLNWYQQKPGKAPKLLIYAARYLRRGVPSRFSGSGSGTDFTLTISSLQPEDFATYYCQQSNEDPLTFGQGTKVEIKR
B2: huMA79b graft variant with HVR-L3 of SEQ ID NO: 50 (Fab, name in Kabat numbering, V domains shown)
VH: B1 VH
VL: B1 VL with R56S, Y57N, R59E, R60S, E97L
B3: huMA79b graft variant with HVR-H1 of SEQ ID NO: 64 (Fab, name in Kabat numbering, V domains shown)
VH: B1 VH with T28P, S30T, E35Q
VL: B1 VL with R56S, Y57N, R59E, R60S
B4: huMA79b graft variant with HVR-L2 of SEQ ID NO: 43 (Fab, name in Kabat numbering, V domains shown)
VH: B1 VH
VL: B1 VL with Y57K, R59G, R60T
B5: huMA79b graft variant with HVR-L3 of SEQ ID NO: 53 (Fab, name in Kabat numbering, V domains shown)
VH: B1 VH
VL: B1 VL with R56S, Y57N, R59E, R60S, Q93D, S95R, E97A
B6: huMA79b graft variant with HVR-L3 of SEQ ID NO: 47 (Fab, name in Kabat numbering, V domains shown)
VH: B1 VH
VL: B1 VL with R56S, Y57N, R59E, R60S, E97Q
B7: huMA79b graft variant with HVR-H1 of SEQ ID NO: 58 (Fab, name in Kabat numbering, V domains shown)
VH: B1 VH with S30N, S31R, E35N
VL: B1 VL with R56S, Y57N, R59E, R60S
B8: huMA79b graft variant with HVR-H1 of SEQ ID NO: 62 (Fab, name in Kabat numbering, V domains shown)
VH: B1 VH with T28P, S30G, S31R, I34V, E35N
VL: B1 VL with R56S, Y57N, R59E, R60S
B9: huMA79b graft variant with HVR-H1 of SEQ ID NO: 66 (Fab, name in Kabat numbering, V domains shown)
VH: B1 VH with T28P, F29V, S30G, S31R, E35S
VL: B1 VL with R56S, Y57N, R59E, R60S
B10: huMA79b graft variant with HVR-H1 of SEQ ID NO: 55 (Fab, name in Kabat numbering, V domains shown)
VH: B1 VH with T28P, S30R, E35Q
VL: B1 VL with R56S, Y57N, R59E, R60S
B11: huMA79b graft variant with HVR-H1 of SEQ ID NO: 70 (Fab, name in Kabat numbering, V domains shown)
VH: B1 VH with S30T
VL: B1 VL with R56S, Y57N, R59E, R60S
B12: huMA79b graft variant with HVR-L3 of SEQ ID NO: 46 (Fab, name in Kabat numbering, V domains shown)
VH: B1 VH
VL: B1 VL with R56S, Y57N, R59E, R60S, E97A
B13: huMA79b graft variant with HVR-L2 of SEQ ID NO: 39 (Fab, name in Kabat numbering, V domains shown)
VH: B1 VH
VL: B1 VL with Y57R, R59G
B14: huMA79b graft variant with HVR-H1 of SEQ ID NO: 68 (Fab, name in Kabat numbering, V domains shown)
VH: B1 VH with T28G, S30T, E35S
VL: B1 VL with R56S, Y57N, R59E, R60S
B15: huMA79b graft variant with HVR-L2 of SEQ ID NO: 42 (Fab, name in Kabat numbering, V domains shown)
VH: B1 VH
VL: B1 VL with Y57K, R59K, R60N
B16: huMA79b graft variant with HVR-L2 of SEQ ID NO: 45 (Fab, name in Kabat numbering, V domains shown)
VH: B1 VH
VL: B1 VL with Y57K, R59A
B17: huMA79b graft variant with HVR-H1 of SEQ ID NO: 71 (Fab, name in Kabat numbering, V domains shown)
VH: B1 VH with S31G, E35N
VL: B1 VL with R56S, Y57N, R59E, R60S
B18: huMA79b graft variant with HVR-H1 of SEQ ID NO: 54 (Fab, name in Kabat numbering, V domains shown)
VH: B1 VH with T28P, S30T, S31R, E35S
VL: B1 VL with R56S, Y57N, R59E, R60S
B19: huMA79b graft variant with HVR-L3 of SEQ ID NO: 51 (Fab, name in Kabat numbering, V domains shown)
VH: B1 VH
VL: B1 VL with R56S, Y57N, R59E, R60S, Q93N, Q94N, E97G, T101N
B20: huMA79b graft variant with HVR-L2 of SEQ ID NO: 40 (Fab, name in Kabat numbering, V domains shown)
VH: B1 VH
VL: B1 VL with Y57Q, L58R, R59K
B21: huMA79b graft variant with HVR-H1 of SEQ ID NO: 69 (Fab, name in Kabat numbering, V domains shown)
VH: B1 VH with S30T, I34L, E35S
VL: B1 VL with R56S, Y57N, R59E, R60S
B22: huMA79b graft variant with HVR-H1 of SEQ ID NO: 56 (Fab, name in Kabat numbering, V domains shown)
VH: B1 VH with T28P, S30T, E35N
VL: B1 VL with R56S, Y57N, R59E, R60S
B23: huMA79b graft variant with HVR-L2 of SEQ ID NO: 44 (Fab, name in Kabat numbering, V domains shown)
VH: B1 VH
VL: B1 VL with Y57K, R59G, R60G
B24: huMA79b graft variant with HVR-H1 of SEQ ID NO: 61 (Fab, name in Kabat numbering, V domains shown)
VH: B1 VH with T28Y, S30T
VL: B1 VL with R56S, Y57N, R59E, R60S
B25: huMA79b graft variant with HVR-L2 of SEQ ID NO: 38 (Fab, name in Kabat numbering, V domains shown)
VH: B1 VH
VL: B1 VL with Y57R, R60T
B26: huMA79b graft variant with HVR-L2 of SEQ ID NO: 41 (Fab, name in Kabat numbering, V domains shown)
VH: B1 VH
VL: B1 VL with Y57K, R59L
B27: huMA79b graft variant with HVR-L3 of SEQ ID NO: 52 (Fab, name in Kabat numbering, V domains shown)
VH: B1 VH
VL: B1 VL with R56S, Y57N, R59E, R60S, Q94P, S95D, D98A, L100R
B28: huMA79b graft variant with HVR-H1 of SEQ ID NO: 63 (Fab, name in Kabat numbering, V domains shown)
VH: B1 VH with S30K, S31K
VL: B1 VL with R56S, Y57N, R59E, R60S
B29: huMA79b graft variant with HVR-H1 of SEQ ID NO: 59 (Fab, name in Kabat numbering, V domains shown)
VH: B1 VH with T28S, S30K
VL: B1 VL with R56S, Y57N, R59E, R60S
B30: huMA79b graft variant with HVR-H1 of SEQ ID NO: 65 (Fab, name in Kabat numbering, V domains shown)
VH: B1 VH with T28P, S30R, S31R
VL: B1 VL with R56S, Y57N, R59E, R60S
B31: huMA79b graft variant with HVR-H1 of SEQ ID NO: 74 (Fab, name in Kabat numbering, V domains shown)
VH: B1 VH with T28S, S30R, S31R, E35N
VL: B1 VL with R56S, Y57N, R59E, R60S
B32: huMA79b graft variant with HVR-H1 of SEQ ID NO: 72 (Fab, name in Kabat numbering, V domains shown)
VH: B1 VH with S30R, S31R, E35N
VL: B1 VL with R56S, Y57N, R59E, R60S
B33: huMA79b graft variant with HVR-L3 of SEQ ID NO: 49 (Fab, name in Kabat numbering, V domains shown)
VH: B1 VH
VL: B1 VL with R56S, Y57N, R59E, R60S, E97D
B34: huMA79b graft variant with HVR-H1 of SEQ ID NO: 73 (Fab, name in Kabat numbering, V domains shown)
VH: B1 VH with T28S, S30R, E35N
VL: B1 VL with R56S, Y57N, R59E, R60S

Biological target: extracellular domain of human CD79b (huCD79becd) (human) (UniProt P40259)
Experiment: phage selection, Fab on phage

binding | Binder
binds | B1
binds | B2
binds | B3
binds | B4
binds | B5
binds | B6
binds | B7
binds | B8
binds | B9
binds | B10
binds | B11
binds | B12
binds | B13
binds | B14
binds | B15
binds | B16
binds | B17

binding | Binder
binds | B18
binds | B19
binds | B20
binds | B21
binds | B22
binds | B23
binds | B24
binds | B25
binds | B26
binds | B27
binds | B28
binds | B29
binds | B30
binds | B31
binds | B32
binds | B33
binds | B34
